Measured values as given in the supplement of paper PMC12067093, “Discovery and optimisation of a covalent ligand for TRIM25 and its application to targeted protein ubiquitination” (Chemical Science, 2025).
The other results are listed elsewhere or left out.

By UniProt entry, the sequences of proteins in these tests, tags left out. Where a name states a change or a piece, a line headed by the entry shows the natural chain unless it says otherwise.
UniProt P52735: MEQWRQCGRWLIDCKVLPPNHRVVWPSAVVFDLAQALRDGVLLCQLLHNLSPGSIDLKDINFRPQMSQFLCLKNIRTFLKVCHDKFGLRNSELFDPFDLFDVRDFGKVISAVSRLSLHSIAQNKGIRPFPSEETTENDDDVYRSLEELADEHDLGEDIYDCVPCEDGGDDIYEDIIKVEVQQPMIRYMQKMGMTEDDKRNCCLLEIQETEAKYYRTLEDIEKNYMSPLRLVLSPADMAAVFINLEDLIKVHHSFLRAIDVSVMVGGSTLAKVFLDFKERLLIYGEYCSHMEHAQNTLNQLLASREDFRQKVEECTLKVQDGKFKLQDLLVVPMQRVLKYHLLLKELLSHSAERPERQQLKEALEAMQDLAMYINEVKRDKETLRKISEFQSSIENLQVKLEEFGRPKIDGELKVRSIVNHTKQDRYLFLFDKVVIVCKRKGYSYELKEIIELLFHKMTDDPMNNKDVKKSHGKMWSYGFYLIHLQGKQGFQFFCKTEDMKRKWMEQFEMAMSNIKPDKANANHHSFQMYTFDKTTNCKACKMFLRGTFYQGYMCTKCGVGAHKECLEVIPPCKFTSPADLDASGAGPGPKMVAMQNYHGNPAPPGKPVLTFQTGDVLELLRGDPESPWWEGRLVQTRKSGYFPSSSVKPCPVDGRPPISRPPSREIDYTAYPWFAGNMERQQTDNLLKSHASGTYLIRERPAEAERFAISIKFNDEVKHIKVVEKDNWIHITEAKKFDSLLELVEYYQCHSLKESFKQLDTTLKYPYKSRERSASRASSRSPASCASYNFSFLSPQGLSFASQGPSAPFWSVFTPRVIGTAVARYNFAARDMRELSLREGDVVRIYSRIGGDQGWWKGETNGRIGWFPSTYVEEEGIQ
UniProt Q14119: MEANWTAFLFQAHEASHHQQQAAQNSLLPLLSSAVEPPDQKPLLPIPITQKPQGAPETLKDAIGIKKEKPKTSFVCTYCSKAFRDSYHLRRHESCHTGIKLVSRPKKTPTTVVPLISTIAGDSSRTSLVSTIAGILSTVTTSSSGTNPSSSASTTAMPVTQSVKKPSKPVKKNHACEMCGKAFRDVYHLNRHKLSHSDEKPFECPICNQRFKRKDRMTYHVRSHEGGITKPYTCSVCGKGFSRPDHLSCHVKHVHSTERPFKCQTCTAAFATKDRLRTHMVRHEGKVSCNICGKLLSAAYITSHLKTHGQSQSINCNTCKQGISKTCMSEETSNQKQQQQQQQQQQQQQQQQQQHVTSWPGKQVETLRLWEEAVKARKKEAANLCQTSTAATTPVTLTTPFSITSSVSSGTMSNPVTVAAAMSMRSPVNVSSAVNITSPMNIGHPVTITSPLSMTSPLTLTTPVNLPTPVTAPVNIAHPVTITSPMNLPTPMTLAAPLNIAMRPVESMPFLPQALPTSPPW
UniProt Q9UN37: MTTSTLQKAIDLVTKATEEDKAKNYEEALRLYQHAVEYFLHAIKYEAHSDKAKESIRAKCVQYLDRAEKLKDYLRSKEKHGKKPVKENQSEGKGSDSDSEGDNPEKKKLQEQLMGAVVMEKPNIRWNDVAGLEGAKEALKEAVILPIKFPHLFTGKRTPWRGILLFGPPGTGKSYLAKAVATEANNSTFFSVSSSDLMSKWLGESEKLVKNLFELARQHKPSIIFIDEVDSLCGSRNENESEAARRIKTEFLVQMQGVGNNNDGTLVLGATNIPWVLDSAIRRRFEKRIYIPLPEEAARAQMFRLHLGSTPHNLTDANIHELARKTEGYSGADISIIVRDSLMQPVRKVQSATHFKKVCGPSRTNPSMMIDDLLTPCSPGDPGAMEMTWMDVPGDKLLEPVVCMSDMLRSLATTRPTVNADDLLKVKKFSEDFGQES
UniProt P15498: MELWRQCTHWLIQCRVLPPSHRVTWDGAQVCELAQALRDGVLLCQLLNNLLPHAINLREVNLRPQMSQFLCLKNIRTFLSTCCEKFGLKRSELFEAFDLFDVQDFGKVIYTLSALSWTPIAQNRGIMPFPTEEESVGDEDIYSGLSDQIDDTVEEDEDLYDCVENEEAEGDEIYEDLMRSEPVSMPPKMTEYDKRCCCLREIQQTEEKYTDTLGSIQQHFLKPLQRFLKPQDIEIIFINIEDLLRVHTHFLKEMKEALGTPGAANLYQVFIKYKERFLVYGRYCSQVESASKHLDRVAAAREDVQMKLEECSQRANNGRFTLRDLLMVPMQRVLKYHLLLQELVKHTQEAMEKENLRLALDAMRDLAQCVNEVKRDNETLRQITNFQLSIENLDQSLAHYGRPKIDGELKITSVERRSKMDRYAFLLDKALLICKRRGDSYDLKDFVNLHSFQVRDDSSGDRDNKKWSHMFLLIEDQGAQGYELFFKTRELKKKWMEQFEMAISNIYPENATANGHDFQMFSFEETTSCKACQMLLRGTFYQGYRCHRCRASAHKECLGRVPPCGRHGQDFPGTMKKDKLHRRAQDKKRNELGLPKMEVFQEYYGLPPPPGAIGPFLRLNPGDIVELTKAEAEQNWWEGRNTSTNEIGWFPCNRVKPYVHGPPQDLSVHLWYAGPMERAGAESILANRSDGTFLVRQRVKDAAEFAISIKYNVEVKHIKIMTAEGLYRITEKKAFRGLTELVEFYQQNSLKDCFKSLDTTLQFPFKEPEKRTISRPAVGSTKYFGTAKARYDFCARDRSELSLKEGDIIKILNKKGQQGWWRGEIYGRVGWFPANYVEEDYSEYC
UniProt Q4G0F5, whole entry, looked up: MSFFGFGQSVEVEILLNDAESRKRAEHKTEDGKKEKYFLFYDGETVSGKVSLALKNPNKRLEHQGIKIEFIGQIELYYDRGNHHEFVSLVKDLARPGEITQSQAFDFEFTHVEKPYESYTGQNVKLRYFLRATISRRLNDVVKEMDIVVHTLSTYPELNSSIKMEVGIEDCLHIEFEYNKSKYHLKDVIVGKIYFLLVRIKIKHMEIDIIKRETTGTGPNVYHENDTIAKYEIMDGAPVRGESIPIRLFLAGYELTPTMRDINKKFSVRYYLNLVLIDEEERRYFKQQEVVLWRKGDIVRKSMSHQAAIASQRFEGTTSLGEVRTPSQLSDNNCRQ
UniProt Q9P253: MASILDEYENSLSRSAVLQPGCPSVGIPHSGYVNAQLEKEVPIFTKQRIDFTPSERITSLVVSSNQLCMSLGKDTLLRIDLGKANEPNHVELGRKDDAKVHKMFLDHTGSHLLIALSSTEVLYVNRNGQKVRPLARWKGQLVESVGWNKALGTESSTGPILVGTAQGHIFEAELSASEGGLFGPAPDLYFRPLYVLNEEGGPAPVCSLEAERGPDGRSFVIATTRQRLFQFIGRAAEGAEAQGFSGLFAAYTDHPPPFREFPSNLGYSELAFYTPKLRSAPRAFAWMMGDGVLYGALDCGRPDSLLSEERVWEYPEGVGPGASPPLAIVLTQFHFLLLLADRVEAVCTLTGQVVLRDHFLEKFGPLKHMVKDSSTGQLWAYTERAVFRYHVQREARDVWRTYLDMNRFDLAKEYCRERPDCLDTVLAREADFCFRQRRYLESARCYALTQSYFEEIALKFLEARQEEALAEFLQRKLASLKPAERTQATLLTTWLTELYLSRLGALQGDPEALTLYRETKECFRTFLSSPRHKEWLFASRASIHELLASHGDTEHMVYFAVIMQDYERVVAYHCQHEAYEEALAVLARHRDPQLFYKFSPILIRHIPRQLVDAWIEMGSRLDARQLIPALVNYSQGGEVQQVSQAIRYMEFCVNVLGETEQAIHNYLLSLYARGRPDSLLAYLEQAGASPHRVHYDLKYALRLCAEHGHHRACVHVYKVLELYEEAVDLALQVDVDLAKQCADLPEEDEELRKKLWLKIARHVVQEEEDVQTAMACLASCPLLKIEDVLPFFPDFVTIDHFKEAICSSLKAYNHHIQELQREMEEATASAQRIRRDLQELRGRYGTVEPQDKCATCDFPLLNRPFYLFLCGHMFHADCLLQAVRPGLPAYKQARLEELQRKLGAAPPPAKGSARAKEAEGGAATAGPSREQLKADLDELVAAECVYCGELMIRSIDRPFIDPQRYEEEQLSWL
UniProt Q9H267: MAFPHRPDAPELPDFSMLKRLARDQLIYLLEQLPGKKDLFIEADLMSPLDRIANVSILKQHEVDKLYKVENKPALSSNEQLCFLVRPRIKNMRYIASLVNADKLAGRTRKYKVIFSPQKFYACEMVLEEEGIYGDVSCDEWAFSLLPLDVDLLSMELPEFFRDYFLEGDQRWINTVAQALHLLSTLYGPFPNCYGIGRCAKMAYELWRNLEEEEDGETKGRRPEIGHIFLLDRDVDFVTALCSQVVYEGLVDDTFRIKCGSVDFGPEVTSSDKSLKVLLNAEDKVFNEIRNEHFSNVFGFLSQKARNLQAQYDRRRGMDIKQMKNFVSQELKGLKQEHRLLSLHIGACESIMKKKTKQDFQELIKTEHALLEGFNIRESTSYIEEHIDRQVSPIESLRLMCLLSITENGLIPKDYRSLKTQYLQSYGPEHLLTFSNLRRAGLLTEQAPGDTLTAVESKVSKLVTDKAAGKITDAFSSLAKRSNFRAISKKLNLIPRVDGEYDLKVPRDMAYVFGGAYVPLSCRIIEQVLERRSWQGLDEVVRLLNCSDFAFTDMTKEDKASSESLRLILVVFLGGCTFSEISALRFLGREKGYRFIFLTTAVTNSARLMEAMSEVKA
UniProt Q9UID3: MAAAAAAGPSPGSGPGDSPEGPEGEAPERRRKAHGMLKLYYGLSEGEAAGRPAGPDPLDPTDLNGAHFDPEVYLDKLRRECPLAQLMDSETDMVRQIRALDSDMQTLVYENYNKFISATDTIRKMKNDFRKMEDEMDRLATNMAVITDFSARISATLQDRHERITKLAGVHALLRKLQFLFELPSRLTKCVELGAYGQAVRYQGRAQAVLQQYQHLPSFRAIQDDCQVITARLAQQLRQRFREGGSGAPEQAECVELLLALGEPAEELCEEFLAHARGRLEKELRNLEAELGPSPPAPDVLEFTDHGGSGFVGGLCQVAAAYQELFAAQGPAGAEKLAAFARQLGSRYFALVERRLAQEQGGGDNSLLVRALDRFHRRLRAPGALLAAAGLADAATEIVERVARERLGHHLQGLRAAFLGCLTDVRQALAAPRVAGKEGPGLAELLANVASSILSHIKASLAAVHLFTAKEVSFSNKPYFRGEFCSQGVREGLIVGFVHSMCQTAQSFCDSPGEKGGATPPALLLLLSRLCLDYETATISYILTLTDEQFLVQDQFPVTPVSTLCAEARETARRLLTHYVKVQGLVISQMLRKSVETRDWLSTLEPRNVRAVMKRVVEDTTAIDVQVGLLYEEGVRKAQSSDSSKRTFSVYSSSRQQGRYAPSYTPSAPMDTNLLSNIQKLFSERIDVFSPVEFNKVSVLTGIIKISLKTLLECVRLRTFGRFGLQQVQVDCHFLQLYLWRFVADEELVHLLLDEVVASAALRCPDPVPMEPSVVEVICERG
UniProt Q96AX1: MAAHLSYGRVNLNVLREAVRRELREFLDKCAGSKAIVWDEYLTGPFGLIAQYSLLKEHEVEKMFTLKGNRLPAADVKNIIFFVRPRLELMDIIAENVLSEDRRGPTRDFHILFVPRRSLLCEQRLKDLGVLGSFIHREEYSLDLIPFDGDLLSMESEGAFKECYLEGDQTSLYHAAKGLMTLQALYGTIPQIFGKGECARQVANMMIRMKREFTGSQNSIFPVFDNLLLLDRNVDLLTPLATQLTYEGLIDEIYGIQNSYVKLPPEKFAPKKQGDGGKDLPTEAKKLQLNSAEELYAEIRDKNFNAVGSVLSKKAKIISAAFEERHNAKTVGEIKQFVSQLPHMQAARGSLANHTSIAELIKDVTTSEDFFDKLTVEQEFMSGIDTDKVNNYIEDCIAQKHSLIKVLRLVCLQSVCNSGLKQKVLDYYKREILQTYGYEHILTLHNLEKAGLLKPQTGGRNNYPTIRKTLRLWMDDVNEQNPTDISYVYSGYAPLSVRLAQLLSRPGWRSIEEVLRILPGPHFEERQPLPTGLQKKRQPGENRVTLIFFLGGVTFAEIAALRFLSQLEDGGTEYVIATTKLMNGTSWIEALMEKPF
UniProt Q8TED0: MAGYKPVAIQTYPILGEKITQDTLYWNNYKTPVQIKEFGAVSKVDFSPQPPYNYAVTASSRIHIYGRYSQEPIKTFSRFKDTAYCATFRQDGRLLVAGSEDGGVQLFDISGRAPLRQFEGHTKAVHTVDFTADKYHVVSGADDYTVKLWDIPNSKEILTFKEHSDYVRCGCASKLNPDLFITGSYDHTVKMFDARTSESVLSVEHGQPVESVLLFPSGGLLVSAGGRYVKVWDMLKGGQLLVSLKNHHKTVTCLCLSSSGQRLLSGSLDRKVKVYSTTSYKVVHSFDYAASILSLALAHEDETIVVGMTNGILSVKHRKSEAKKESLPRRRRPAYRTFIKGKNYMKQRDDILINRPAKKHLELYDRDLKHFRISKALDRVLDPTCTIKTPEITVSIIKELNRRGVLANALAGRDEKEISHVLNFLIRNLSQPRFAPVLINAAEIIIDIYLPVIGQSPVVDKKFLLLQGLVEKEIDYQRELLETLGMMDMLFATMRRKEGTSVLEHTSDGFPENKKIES

compound: CC1Cc2ccccc2N1C(=O)C1CCCN(C1)C(=O)CCl (mixture of isomers) [TRIM25 ligand 11 (diastereomer mixture)]; assay: probe-labelled cysteine peptide fold change vs DMSO (competition) (log2 fold change); higher = less target engagement (more negative = stronger competition); settings: 10 µM; THP-1; incubation time: 4 h
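Also: competitive chemoproteomic profiling in live THP-1 cells with an iodoacetamide desthiobiotin (IA-DTB) probe, comparing probe-labelled peptide intensities in compound-treated cells against DMSO-treated controls.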

Point of comparison: “VAV2_P52735_557_CGVGAHK (UniProt P52735)”, “probe-labelled cysteine peptide fold change” value 0.0102. Against it:
- VPS53_Q5VIR6_242_DACLVANILDPR (UniProt Q5VIR6) — lower, -0.0484
- UTP20_O75691_2388_QLAALICGLFVESEGVDFEKR (UniProt O75691) — higher, 0.122
- WAPL_Q7Z5K2_891_ALQHCEELIQQYNR (UniProt Q7Z5K2) — higher, 0.739
- VPS13B_Q7Z7G8_3937_VACDVEVDGVR (UniProt Q7Z7G8) — higher, 0.0676
- VCPIP1_Q96JH7_469+472_CLLCGALSELHVPPEWLAPGGK (UniProt Q96JH7) — lower, -0.0947
- VASP_P50552_64_MQPDQQVVINCAIVR (UniProt P50552) — lower, -0.027
- VPS29_Q9UBQ0_36+41_IQHILCTGNLCTK (UniProt Q9UBQ0) — higher, 0.0402
- VCL_P18206_1018_ALIQCAK (UniProt P18206) — lower, -0.0782
- VPS39_Q96JC1_723_MAEEYCHK (UniProt Q96JC1) — lower, -0.0648
- VEZF1_Q14119_319_THGQSQSINCNTCK (UniProt Q14119) — lower, -0.137
- VPS39_Q96JC1_467_CYLHTNVALVAPLLR (UniProt Q96JC1) — lower, -0.0605
- VCP_P55072_209_REDEEESLNEVGYDDIGGCR (UniProt P55072) — higher, 0.168
- UTP23_Q9BRU9_35_NNFGVREPYQILLDGTFCQAALR (UniProt Q9BRU9) — lower, -0.28
- VARS_P26640_663_GIEDNPMVVPLCNR (UniProt P26640) — lower, -0.0683
- VRK3_Q8IV63_288_SVLQVACR (UniProt Q8IV63) — lower, -0.016
- UTP20_O75691_242_NMFHSCTGQAVK (UniProt O75691) — higher, 0.0211
- VPS11_Q9H270_586_EAPGCR (UniProt Q9H270) — higher, 0.694
- VPS54_Q9P1Q0_40_HIRPVPSLPDVCPK (UniProt Q9P1Q0) — higher, 0.0203
- VPS4A_Q9UN37_233_PSIIFIDEVDSLCGSR (UniProt Q9UN37) — higher, 0.109
- VAV1_P15498_83_TFLSTCCEK (UniProt P15498) — lower, -0.0378
- VEZF1_Q14119_327_TCMSEETSNQK (UniProt Q14119) — lower, -0.186
- VPS53_Q5VIR6_321_IAVEFCHVTR (UniProt Q5VIR6) — higher, 0.0366
- VPS37A_Q8NEZ2_375_TICHCR (UniProt Q8NEZ2) — higher, 0.905
- VPS26B_Q4G0F5_334_TPSQLSDNNCRQ (UniProt Q4G0F5) — lower, -0.0785
- UTP6_Q9NYH9_328_CYITFCLER (UniProt Q9NYH9) — lower, -0.241
- VPS8_Q8N3P4_564_KCPDQGK (UniProt Q8N3P4) — higher, 0.103
- VPS18_Q9P253_741_QCADLPEEDEELRK (UniProt Q9P253) — lower, -0.0236
- VTA1_Q9NP79_87_KQLGDNEAITQEIVGCAHLENYALK (UniProt Q9NP79) — lower, -0.158
- VPS35_Q96QK1_640_CFSEENHEPLR (UniProt Q96QK1) — higher, 0.109
- VRK1_Q99986_220_RCHDGTIEFTSIDAHNGVAPSR (UniProt Q99986) — higher, 0.0479
- VPS33B_Q9H267_82_VENKPALSSNEQLCFLVRPR (UniProt Q9H267) — lower, 0.00364
- VPS51_Q9UID3_226_AIQDDCQVITAR (UniProt Q9UID3) — lower, -0.0611
- VPS33A_Q96AX1_121_SLLCEQR (UniProt Q96AX1) — lower, -0.039
- UTP15_Q8TED0_385_VLDPTCTIK (UniProt Q8TED0) — higher, 0.0337
- VCP_P55072_535_AIANECQANFISIK (UniProt P55072) — lower, -0.0612
- WAPL_Q7Z5K2_133_CFPLEDTLLGK (UniProt Q7Z5K2) — lower, -0.12
- WAPL_Q7Z5K2_344_KGGVSCGTSFR (UniProt Q7Z5K2) — lower, -0.0736
- VPS11_Q9H270_709_QVISVCER (UniProt Q9H270) — higher, 0.271

same assay, conditions: 50 µM; THP-1; incubation time: 4 h

Point of comparison: “VPS18_Q9P253_741_QCADLPEEDEELRK (UniProt Q9P253)”, “probe-labelled cysteine peptide fold change” value -0.0289. Against it:
- VPS53_Q5VIR6_242_DACLVANILDPR (UniProt Q5VIR6) — higher, 0.511
- UTP20_O75691_2388_QLAALICGLFVESEGVDFEKR (UniProt O75691) — higher, 0.227
- WAPL_Q7Z5K2_891_ALQHCEELIQQYNR (UniProt Q7Z5K2) — higher, 0.496
- VPS13B_Q7Z7G8_3937_VACDVEVDGVR (UniProt Q7Z7G8) — lower, -0.592
- VCPIP1_Q96JH7_469+472_CLLCGALSELHVPPEWLAPGGK (UniProt Q96JH7) — lower, -0.264
- VASP_P50552_64_MQPDQQVVINCAIVR (UniProt P50552) — higher, 0.0109
- VPS29_Q9UBQ0_36+41_IQHILCTGNLCTK (UniProt Q9UBQ0) — lower, -0.0827
- VCL_P18206_1018_ALIQCAK (UniProt P18206) — higher, 0.125
- VPS39_Q96JC1_723_MAEEYCHK (UniProt Q96JC1) — higher, -0.00167
- VEZF1_Q14119_319_THGQSQSINCNTCK (UniProt Q14119) — lower, -0.311
- VPS39_Q96JC1_467_CYLHTNVALVAPLLR (UniProt Q96JC1) — higher, 0.142
- VCP_P55072_209_REDEEESLNEVGYDDIGGCR (UniProt P55072) — higher, 0.0307
- UTP23_Q9BRU9_35_NNFGVREPYQILLDGTFCQAALR (UniProt Q9BRU9) — lower, -0.275
- VARS_P26640_663_GIEDNPMVVPLCNR (UniProt P26640) — lower, -0.176
- VRK3_Q8IV63_288_SVLQVACR (UniProt Q8IV63) — higher, 0.0415
- UTP20_O75691_242_NMFHSCTGQAVK (UniProt O75691) — higher, 0.125
- VPS11_Q9H270_586_EAPGCR (UniProt Q9H270) — higher, 1.1
- VPS54_Q9P1Q0_40_HIRPVPSLPDVCPK (UniProt Q9P1Q0) — lower, -0.252
- VPS4A_Q9UN37_233_PSIIFIDEVDSLCGSR (UniProt Q9UN37) — higher, 0.0906
- VAV1_P15498_83_TFLSTCCEK (UniProt P15498) — higher, 0.202
- VEZF1_Q14119_327_TCMSEETSNQK (UniProt Q14119) — lower, -0.42
- VPS53_Q5VIR6_321_IAVEFCHVTR (UniProt Q5VIR6) — higher, 0.00229
- VPS37A_Q8NEZ2_375_TICHCR (UniProt Q8NEZ2) — higher, 0.772
- VPS26B_Q4G0F5_334_TPSQLSDNNCRQ (UniProt Q4G0F5) — lower, -0.231
- UTP6_Q9NYH9_328_CYITFCLER (UniProt Q9NYH9) — lower, -0.109
- VPS8_Q8N3P4_564_KCPDQGK (UniProt Q8N3P4) — higher, 0.0855
- VTA1_Q9NP79_87_KQLGDNEAITQEIVGCAHLENYALK (UniProt Q9NP79) — lower, -0.183
- VPS35_Q96QK1_640_CFSEENHEPLR (UniProt Q96QK1) — higher, -0.0171
- VRK1_Q99986_220_RCHDGTIEFTSIDAHNGVAPSR (UniProt Q99986) — lower, -0.0945
- VPS33B_Q9H267_82_VENKPALSSNEQLCFLVRPR (UniProt Q9H267) — higher, 0.141
- VPS51_Q9UID3_226_AIQDDCQVITAR (UniProt Q9UID3) — higher, 0.0255
- VPS33A_Q96AX1_121_SLLCEQR (UniProt Q96AX1) — higher, 0.0394
- UTP15_Q8TED0_385_VLDPTCTIK (UniProt Q8TED0) — higher, 0.183
- VCP_P55072_535_AIANECQANFISIK (UniProt P55072) — lower, -0.135
- WAPL_Q7Z5K2_133_CFPLEDTLLGK (UniProt Q7Z5K2) — lower, -0.223
- WAPL_Q7Z5K2_344_KGGVSCGTSFR (UniProt Q7Z5K2) — lower, -0.111
- VPS11_Q9H270_709_QVISVCER (UniProt Q9H270) — higher, 0.0559
- VAV2_P52735_557_CGVGAHK (UniProt P52735) — higher, 0.111
